Literature values in patent publication US9694002B2, “Substituted benzamides and methods of use thereof” (GENENTECH, INC., priority 2013, dated 2017).

Conditions: lidocaine administered topically; Center for Drug Evaluation and Research NDA 20-612; cited from earlier work

In the case of `CCN(CC)CC(=O)Nc1c(C)cccc1C` [lidocaine], the plasma concentrations is given as “about 1 μM”.
